Results published in article PMC4468220, “Defective Proteasome Delivery of Polyubiquitinated Proteins by Ubiquilin-2 Proteins Containing ALS Mutations” (PLoS ONE, 2015).
No constants are given. Whether binding was seen depends on the method and setting. In cells and extracts the contact can be indirect. Some entries that bind do so weakly or less than the wild type.

Protein sequences, listed by entry. Tags and fused reporters are not part of them. Lines headed by an entry give the natural chain unless they say otherwise; changes in a name come on top.
UniProt Q9UHD9: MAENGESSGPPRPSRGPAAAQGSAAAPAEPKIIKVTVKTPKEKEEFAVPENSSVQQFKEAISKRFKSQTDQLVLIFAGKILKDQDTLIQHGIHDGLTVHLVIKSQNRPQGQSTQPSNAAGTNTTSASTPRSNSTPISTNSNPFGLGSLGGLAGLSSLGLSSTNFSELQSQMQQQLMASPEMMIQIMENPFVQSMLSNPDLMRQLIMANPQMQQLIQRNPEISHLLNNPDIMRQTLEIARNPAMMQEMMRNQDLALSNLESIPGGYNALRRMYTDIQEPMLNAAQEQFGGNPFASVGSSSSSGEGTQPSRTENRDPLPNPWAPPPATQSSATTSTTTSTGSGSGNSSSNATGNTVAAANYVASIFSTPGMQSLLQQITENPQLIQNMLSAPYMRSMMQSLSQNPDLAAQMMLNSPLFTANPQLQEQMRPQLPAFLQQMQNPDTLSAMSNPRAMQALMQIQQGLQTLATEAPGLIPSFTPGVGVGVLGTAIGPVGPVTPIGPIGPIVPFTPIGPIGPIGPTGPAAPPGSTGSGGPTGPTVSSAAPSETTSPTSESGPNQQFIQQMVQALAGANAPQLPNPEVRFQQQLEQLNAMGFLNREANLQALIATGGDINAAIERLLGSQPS
UniProt P25786: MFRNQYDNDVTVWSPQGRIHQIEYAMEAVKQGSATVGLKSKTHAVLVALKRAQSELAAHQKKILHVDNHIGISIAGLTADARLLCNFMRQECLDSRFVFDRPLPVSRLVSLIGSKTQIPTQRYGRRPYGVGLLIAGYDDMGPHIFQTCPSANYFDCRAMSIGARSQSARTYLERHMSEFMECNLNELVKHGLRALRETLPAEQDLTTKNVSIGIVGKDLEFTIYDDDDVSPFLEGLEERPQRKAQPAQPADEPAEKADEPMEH

What was measured:
Test in all cases: co-IP; HeLa cells transfected with HA-tagged ubiquilin-2 constructs; lysates in RIPA buffer (0.2% NP40, 50mM Tris pH 7.5, 150mM NaCl, 2mM EDTA); rabbit anti-HA on Protein A/G Dynabeads, 4°C; precipitates blotted for ubiquitin and the alpha 6-subunit; signal normalised to precipitated HA protein
[1] = biological target: HA-tagged human ubiquilin-2 P525S (human) (UniProt Q9UHD9)
[2] = biological target: HA-tagged human ubiquilin-2 P509S (human) (UniProt Q9UHD9)
[3] = biological target: HA-tagged human ubiquilin-2 P497H (human) (UniProt Q9UHD9)
[4] = biological target: HA-tagged human ubiquilin-2 P497S (human) (UniProt Q9UHD9)
[5] = biological target: HA-tagged human ubiquilin-2 P506T (human) (UniProt Q9UHD9)
[6] = biological target: HA-tagged wild type human ubiquilin-2 (human) (UniProt Q9UHD9)

Measured: binding

alpha 6-subunit of the proteasome (from UniProt P25786 1-263)
binds: [1] | [2] | [3] | [4] | [5] | [6]
